Measured values from PMC11459619, “Evaluating the amoeba thioredoxin reductase selenoprotein as potential drug target for treatment of Acanthamoeba infections” (International Journal for Parasitology: Drugs and Drug …, 2024).

Test system: human corneal epithelial cells (HCECs)
Assay: Cytotoxicity test on human corneal epithelial cells (CellTiter 96 AQueous One)
Assay type: cell-based
Conditions: ratio of TD50 (HCEC) to IC50 (Neff trophozoites)
Method: Cytotoxicity of the compounds towards human corneal epithelial cells (HCECs) (Innoprot, ref. P10871) was determined ([Loufouma Mbouaka et al., 2023]) in 96-well microplates. The HCECs (1 × 10^4 cells/well) were grown in 100 μL of corneal epithelial cell medium (CEpiCM) (Innoprot, ref. P60131) supplemented with 1% of corneal epithelial cell growth supplement (CEpiCGS), 2% of fetal bovine serum (FBS) and 1% antibiotic mix: 10,000 U penicillin, 10 mg streptomycin and 25 μg amphotericin B per milliliter. After overnight incubation, cytotoxicity was evaluated adding 20 μL of CellTiter 96® AQueous One Solution Reagent (Promega, Madison, WI, USA). After 1 h of incubation at 37 °C, the absorbance at 490 nm was read using a spectrophotometer (Tecan, Spark 10M, Switzerland).
The TD50 values were calculated using the same method as the IC50 values with GraphPad Prism. Moreover, the therapeutic index was determined as the ratio of TD50 to IC50 ([Muller and Milton, 2012]).

Compound	Therapeutic index (TI) 24 h	Therapeutic index (TI) 48 h	Therapeutic index (TI) 72 h
CC(=O)OC[C@H]1O[C@@H]([S-])[C@H](OC(C)=O)[C@@H](OC(C)=O)[C@@H]1OC(C)=O.CCP(CC)CC.[Au+] [Auranofin, auranofin]	0.02	0.056	0.17
COc1ccc([N+](=O)[O-])c(S(=O)(=O)c2ccc(Cl)cc2)n1 [TRi-1]	0.5	1.10	1.96
